# Data as given in PubChem BioAssay AID504786 (Drosophila RNAi Screening Center, 2011).
# Screen: 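Fly genes required for HIF-dependent transcription when hypoxia is mimicked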 (primary screen)
# Cells: Drosophila S2 cells with a stable HIF luciferase reporter
# Reagents: long dsRNA against Drosophila genes, about 0.2 µg dsRNA per well of a 384-well plate
# Duration: three days of knock-down, then 20 h of DFO before reading
# Conditions: desferrioxamine (DFO) at 100 µM, an iron chelator that mimics hypoxia, for 20 h
# Measured: 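HIF reporter luminescence in cells given 100 µM DFO for 20 h, using the mouse ldh-a hypoxia-response element, scored as per-plate z-scores; higher means greater loss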
# Direction: z-score: higher = stronger loss of HIF reporter signal
# The screen tested about 21,000 reagents; shown is an unselected part of those that have a named target and a result. 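Primary screen; positive scores mean lost reporter signal, so the sign may be inverted from the usual convention.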 Names joined by + are all predicted targets of the reagent.
gene,dsRNA,"z-score, replicate 1","z-score, replicate 2","z-score, replicate 3","z-score, replicate 4"
Karl,DRSC19883,-0.3,-0.6,,
IA-2,DRSC00304,-0.1,0,-0.7,-0.1
IA-2,DRSC00652,-0.2,0,,
CG9757,DRSC16557,-0.3,-0.9,,
trus,DRSC15772,-0.3,0,,
CG9705,DRSC11094,-0.2,-0.4,,
CG3246,DRSC00584,-0.1,0.6,,
CG4660,DRSC18378,-0.3,-0.5,,
CG32985,DRSC02634,-0.3,-0.3,,
Phf7,DRSC20692,-0.3,-0.4,,
cerv,DRSC19681,-0.1,0.2,,
CG32712,DRSC17820,-0.1,-0.2,,
CG8539,DRSC10988,-0.3,-0.6,,
CG17593,DRSC00504,-0.1,-0.1,,
Hs6st,DRSC14348,0.8,0.1,,
Hs6st,DRSC15182,-0.6,-0.6,,
Hs6st,DRSC15581,0.1,-0.7,-0.6,-0.2
Mlc-c,DRSC18683,-0.3,-0.4,,
Acp1,DRSC01854,-0.1,-0.6,,
Tusp,DRSC15838,0.2,1.1,,
CG2983,DRSC00558,-0.1,0.6,,
Syt4,DRSC12606,-0.3,0,,
stx,DRSC18442,1.8,0.4,,
stx,DRSC18443,-0.2,0.1,,
frac,DRSC10867,-0.4,-0.5,,
aqrs,DRSC14724,-0.4,0.1,,
CG7653,DRSC01886,-0.2,-0.1,,
pbl,DRSC11381,-0.3,0.8,,
CG8916,DRSC20120,-0.4,-0.4,,
CG12539,DRSC19470,-0.2,-0.9,,
CG32563,DRSC19934,-0.4,-0.6,,
CG18568,DRSC06768,-0.2,-0.2,,
CG12084,DRSC08247,-0.3,0.1,,
Sur-8,DRSC15794,-0.4,-0.6,,
vsg,DRSC10219,0.6,1.1,,

Entries listed so far whose target name begins with C or c (16):
gene,dsRNA,"z-score, replicate 1","z-score, replicate 2","z-score, replicate 3","z-score, replicate 4"
CG9757,DRSC16557,-0.3,-0.9,,
CG9705,DRSC11094,-0.2,-0.4,,
CG3246,DRSC00584,-0.1,0.6,,
CG4660,DRSC18378,-0.3,-0.5,,
CG32985,DRSC02634,-0.3,-0.3,,
cerv,DRSC19681,-0.1,0.2,,
CG32712,DRSC17820,-0.1,-0.2,,
CG8539,DRSC10988,-0.3,-0.6,,
CG17593,DRSC00504,-0.1,-0.1,,
CG2983,DRSC00558,-0.1,0.6,,
CG7653,DRSC01886,-0.2,-0.1,,
CG8916,DRSC20120,-0.4,-0.4,,
CG12539,DRSC19470,-0.2,-0.9,,
CG32563,DRSC19934,-0.4,-0.6,,
CG18568,DRSC06768,-0.2,-0.2,,
CG12084,DRSC08247,-0.3,0.1,,

Further results follow:
gene,dsRNA,"z-score, replicate 1","z-score, replicate 2","z-score, replicate 3","z-score, replicate 4"
Spt3,DRSC15465,0.1,0.3,,
Tsen34 + Trl,DRSC10014,-0.1,-0.7,,
Atg10,DRSC06172,-0.2,0.3,,
Ccdc39,DRSC12286,-0.3,-0.2,,
Bmcp,DRSC10808,-0.3,-1.1,,
CG7465,DRSC08592,-0.4,-0.4,,
m-cup,DRSC14430,-0.1,-0.5,,
CG4558,DRSC18369,-0.4,-0.6,,
CG14102,DRSC10103,-0.2,-0.3,,
Gr47a,DRSC06221,-0.2,-0.2,,
CG1750,DRSC15240,0.1,-0.1,,
not,DRSC11378,-0.4,-0.5,,
CG12206,DRSC17828,-0.1,0.8,,
ghi,DRSC08985,-0.4,0.6,,
CG15888,DRSC15125,-0.4,-0.2,,
Sulf1,DRSC16874,-0.4,-0.3,,
tank,DRSC00461,-0.2,0.1,,
Hecw,DRSC18261,-0.2,-1,,
Hecw,DRSC18276,0,-0.3,,
CG4553,DRSC15595,-0.3,-0.4,,
Cyp4d2,DRSC18458,-0.3,0.2,,
phtf,DRSC05023,0,0.5,,
CG42299 + CG42300,DRSC19680,-0.3,-0.3,,
CG42299 + CG42300,DRSC19815,-0.3,0.3,,
Had1,DRSC20216,-0.3,0.3,,
Tbc1d15-17,DRSC00313,-0.3,-0.3,,
CG15408,DRSC00423,0,0.1,,
Uch-L5R,DRSC19825,-0.4,-0.5,,
CG7402,DRSC10839,-0.2,1.3,,
Argk1,DRSC08959,-0.3,-0.7,-0.1,-0.1
Argk1,DRSC09668,0,-0.3,,
Argk1,DRSC10460,-0.3,-0.2,,
Ir60d,DRSC04218,-0.2,-0.4,,
CG14694,DRSC14917,-0.4,-0.4,,
CG18011,DRSC06697,-0.5,-0.6,,
CG18011,DRSC06706,-0.2,-0.3,,
chb,DRSC11469,0.3,0,,
S-Lap3,DRSC10956,-0.1,-0.3,,
Ogg1,DRSC17738,-0.3,-0.3,,
frj,DRSC03250,-0.3,-0.1,,
CG32276,DRSC08027,-0.4,0.2,,
CG11327,DRSC02146,-0.3,-0.3,,
CG18810,DRSC02701,-0.1,0,,
mad2,DRSC10274,0.1,-0.1,,
Eaat1,DRSC03321,-0.3,-0.3,,
Pih1D1,DRSC02897,-0.4,-0.6,,
CG12320,DRSC14498,-0.2,0.1,,
Gcat,DRSC09719,-0.4,-0.4,,
